# In PubChem BioAssay AID504834 (National Center for Advancing Translational Sciences (NCATS), 2011):
# Among all 320,000 compounds or so, about 22,000 (6.9%) were called active. This list was built around the results that the source calls inconclusive (neither active nor inactive); the mix of calls is not that of the screen. The call rests on the fitted dose curve; in most records, active means well fitted inhibition curve with a large enough effect; inconclusive means small, poorly fitted or top-dose-only effect, or another doubt; inactive means no such curve, though single readings can be large or run the other way. A potency beside an inconclusive call is a rough fit, not a confirmed value.
# Assay: Primary qHTS for delayed death inhibitors of the malarial parasite plastid, 96 hour incubation
# Conditions: P. falciparum luciferase reporter growth; series mostly up to 28.7 µM
# Method in brief: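 Erythrocytes infected with luciferase-expressing P. falciparum were dispensed at 2% hematocrit and 0.05% parasitemia (final), then incubated with compounds 96 hours at 37 C in 5% CO2. Luminescence after detection reagent addition reported growth.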
# Potency means the concentration at half of the fitted maximal effect.
row,SMILES,Potency
1,Cc1ccc(NC(CNS(=O)(=O)c2ccc(Cl)cc2)c2ccccc2)cc1 (configuration not stated),"inconclusive: 10.4 µM [inhibitor, single point]"
2,CCOC(=O)c1nnsc1Nc1ccc(C)c(C)c1,inactive
3,Cc1ccc(-c2nnn(CC(=O)N(CC(=O)NC3CCCC3)c3ccc(F)c(Cl)c3)n2)o1,active: 13.1 µM
4,COc1ccc(NC(=O)Cc2nnc(N)s2)cc1,"inconclusive: 18.5 µM [inhibitor, single point]"
5,Cc1ccc(C)c(NC(=O)CN(C)C(=O)COc2cccc3c2OC(C)(C)C3)c1,"inconclusive: 13.1 µM [inhibitor, partial curve]"
6,O=C(/C=C\Nc1ccccc1Br)c1ccc2c(c1)OCO2,"inconclusive: 13.1 µM [inhibitor, single point]"
7,Oc1ccc(/C=N/NC(=S)Nc2cccnc2)c(O)c1O,"inconclusive: 0.0047 µM [inhibitor, full curve, poor fit]"
8,O=C(CCn1c(=S)oc2ccccc21)N1CCN(c2ccc(F)cc2)CC1,"inconclusive: 10.4 µM [inhibitor, single point]"
9,CCOC(=O)c1cc2c(N)c(C(=O)c3cc(C#N)c(SC)nc3C)sc2nc1C,inactive
10,COc1ccccc1N1CCN(S(=O)(=O)c2cn(C)nc2C)CC1,"inconclusive: 11.7 µM [inhibitor, partial curve, poor fit]"
11,CCCCn1c(N)c(N(CCOC)C(=O)COC(=O)c2cc(CCC)c(C)s2)c(=O)[nH]c1=O,"inconclusive: 5.86 µM [inhibitor, partial curve, poor fit]"
12,O=C(CCn1cnnn1)NC1CCCN(Cc2ccccc2F)C1 (configuration not stated),active: 13.1 µM
13,Cc1ccc(-n2nnc3c(=O)n(CC(N)=O)cnc32)cc1,"inconclusive: 0.294 µM [inhibitor, full curve, poor fit]"
14,Oc1ccc2ccccc2c1C=NCc1cn2ccsc2n1,"inconclusive: 3.7 µM [inhibitor, partial curve]"
15,COc1ccc(NC(=O)CSc2nc3[nH]ncc3c(=O)n2-c2ccccc2OC)cc1OC,"inconclusive: 10.4 µM [inhibitor, single point]"
16,COc1cc(/C=N/Nc2ccc(Cl)nn2)cc(OC)c1O,"inconclusive: 7.38 µM [inhibitor, partial curve]"
17,O=C(CCc1ccccc1)Nc1ncn[nH]1,"inconclusive: 1.47 µM [inhibitor, full curve]"
18,Cc1ccc(C(=O)Cc2cc3ccccc3oc2=O)c(C)c1,"inconclusive: 16.5 µM [inhibitor, partial curve, poor fit]"
19,Cc1noc(/C=C/N(C)C)c1S(=O)(=O)N(C)Cc1ccc(F)cc1,"inconclusive: 7.38 µM [inhibitor, partial curve]"
20,COc1cccc(C(=O)N2CCN(C(=O)C3CC3)CC2)c1,active: 11.7 µM
21,COC(=O)c1ccc(C(NC(=O)c2cccnc2)NC(=O)c2cccnc2)cc1,inactive

# Structural class: the compounds so far with a thiophene ring, fused or not (2)
row,SMILES,Potency
9,CCOC(=O)c1cc2c(N)c(C(=O)c3cc(C#N)c(SC)nc3C)sc2nc1C,inactive
11,CCCCn1c(N)c(N(CCOC)C(=O)COC(=O)c2cc(CCC)c(C)s2)c(=O)[nH]c1=O,"inconclusive: 5.86 µM [inhibitor, partial curve, poor fit]"

# (continued)

row,SMILES,Potency
1,CCc1cc(=O)oc2cc(OCC(=O)NCCN3CCOCC3)c(Cl)cc12,"inconclusive: 16.5 µM [inhibitor, single point]"
2,Cc1ccc(CNC(=O)CN2C(=O)C3(OCCCO3)c3ccccc32)cc1,active: 10.4 µM
3,C#CCOCCOCCOCCNc1nc(N2CCN(C(=O)CCCCCCCCCCNC(=O)[C@H](CO)n3cc(CCCSC)nn3)CC2)nc(N2CCN(C(=O)CCCCCCCCCCNC(=O)[C@H](CO)n3cc(CCCSC)nn3)CC2)n1,active: 0.104 µM
4,Cc1ccc(NC(=O)C(C)N2CCN(C)CC2)cc1S(=O)(=O)N1CCOCC1 (configuration not stated),inactive
5,COc1cccc(NC(=O)CSc2ccc(-c3sc(C)nc3C)nn2)c1,"inconclusive: 4.15 µM [inhibitor, partial curve, poor fit]"
6,O=S(=O)(Nc1nccs1)c1cnc(Cl)c(Br)c1,inactive
7,CN(C)C1=NP(N(C)C)(N(C)C)=NC(c2ccccc2)=N1,active: 1.65 µM
8,Cc1cc(C)c2[nH]c(=O)c(CN(CC3CCCO3)S(=O)(=O)c3ccc4c(c3)OCCO4)cc2c1 (configuration not stated),"inconclusive: 10.4 µM [inhibitor, partial curve, poor fit]"
9,CC1(C)Cc2c(sc(NC(=O)C(=O)NCC3CCCO3)c2C(N)=O)CO1 (configuration not stated),"inconclusive: 10.4 µM [inhibitor, single point]"
10,O=C(C(c1ccccc1)c1ccccc1)N(Cc1ccco1)C1CCS(=O)(=O)C1 (configuration not stated),"inconclusive: 0.329 µM [inhibitor, full curve, poor fit]"
11,CC(C)Oc1ccc(/C=C(/NC(=O)c2ccccc2)C(=O)NCCC(=O)O)cc1,"inconclusive: 11.7 µM [inhibitor, single point]"
12,Cc1ccc(C(=O)O/N=C(\N)Cc2ccc([N+](=O)[O-])cc2)c(Cl)c1,inactive
13,COc1ccc(-c2nn(-c3ccccc3)cc2/C=N/NC(=O)c2ccc3c(c2)OCO3)cc1,"inconclusive: 18.5 µM [inhibitor, single point]"
14,CCCOC(=O)C1=C(C)NC2=C(C(=O)CCC2)C1c1ccc(N(C)C)cc1 (configuration not stated),"inconclusive: 18.5 µM [inhibitor, single point]"
15,CCOc1ccc(S(=O)(=O)Nc2ccc3c(c2)OCO3)c2cccnc12,"inconclusive: 20.8 µM [inhibitor, partial curve, poor fit]"
16,COC(=O)c1ccc(N=NNc2ccc(C(=O)OC)cc2)cc1,inactive
17,COc1ccc(CCNC(=S)NC(=O)c2cc(OC)c(OC)c(OC)c2)cc1OC,"inconclusive: 3.7 µM [inhibitor, partial curve, poor fit]"
18,CC1CCN(C(=O)c2ccccc2NC(=O)Nc2ccccc2)CC1,inactive
19,Cc1ccc(S(=O)(=O)N2CCC(C(=O)Nc3ccc(S(=O)(=O)N4CCCC4)cc3)CC2)cc1C,"inconclusive: 1.65 µM [inhibitor, full curve]"
20,CC(=O)c1cccc(NC(=O)N2CCCC2C(=O)Nc2cccc(C)c2)c1 (configuration not stated),"inconclusive: 13.1 µM [inhibitor, partial curve, poor fit]"
21,COc1ccccc1NC(=O)c1ccc(C(=O)c2ccccc2)o1,inactive
